In PubChem BioAssay AID1439 (NMMLSC, 2008):
The campaign covered roughly 220,000 compounds. About 770 (0.35%) were called active. This list was built around the results that the source calls inconclusive (neither active nor inactive); the mix of calls is not that of the screen. No stated cut-off is given here; in the data, active means binding response below about 49% or above about 150%; inconclusive means no clear call, values can overlap the other calls; inactive means in between.

The chains behind the UniProt entries cited, without tags or fusion partners.
UniProt P09471, whole entry, looked up: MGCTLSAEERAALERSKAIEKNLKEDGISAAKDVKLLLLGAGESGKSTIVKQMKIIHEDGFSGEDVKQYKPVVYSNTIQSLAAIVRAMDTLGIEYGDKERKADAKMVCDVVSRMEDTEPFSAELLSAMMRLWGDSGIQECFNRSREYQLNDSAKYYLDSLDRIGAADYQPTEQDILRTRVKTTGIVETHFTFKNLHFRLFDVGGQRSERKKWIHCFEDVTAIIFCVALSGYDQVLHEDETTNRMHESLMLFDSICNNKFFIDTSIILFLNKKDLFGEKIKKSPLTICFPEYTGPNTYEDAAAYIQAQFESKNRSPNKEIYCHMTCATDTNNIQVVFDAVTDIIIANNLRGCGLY

biological target: Guanine nucleotide-binding protein G(o) subunit alpha (Homo sapiens) (UniProt P09471); assay: RGS7-Galphao binding modulators, primary screen, biochemical, multiplexed bead flow cytometry (AID 1439); conditions: at 10 µM, actives lie on both sides;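 further: fluorescent Galphao held in activated GDP-AlF4 state binding bead-coupled RGS7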

Structure (SMILES)	binding response (% of control)
O=C1C(C2=NC(c3ccccn3)C3C(=O)N(c4ccccc4)C(=O)C23)=C(O)c2ccccc21 (stereo not given)	inconclusive: 85.5%
N#C/C(=C\c1ccc(C(=O)O)cc1)c1nc2sc3c(c2c(=O)[nH]1)CCCC3	inconclusive: 112%
CN(C)C(CNC(=S)Nc1ccc(F)cc1)c1cccnc1 (stereo not given)	inactive: 99.5%
COc1ccc(C(=O)NCC(=O)N2CCc3ccccc3C2)cc1	inconclusive: 116%
CN(CCc1ccccn1)C(=O)CCC1CCCN(C(=O)c2ccsc2)C1 (stereo not given)	inactive: 98.2%
O=C(c1cccc([N+](=O)[O-])c1)c1ccc2c(c1)OCCOCCOCCOCCO2	inconclusive: 110%
O=C1/C(=N\S(=O)(=O)c2cccs2)C([n+]2ccccc2)=C([O-])c2ccccc21	inconclusive: 104%
Brc1cc2c(cc1Br)OCCOCCOCCO2	inconclusive: 82.4%
O=C(CCc1ccc(O)cc1)NNC(=S)NCCc1ccccc1	inconclusive: 104%
CCO[C@@H]1OC(C(=O)NC2CC2)=C[C@H](C2CC2)[C@H]1CCCO	inconclusive: 91.5%
COc1ccccc1Nc1nc(N)nc(CN2CCC(C)CC2)n1	inactive: 97.5%
CCOC(=O)c1cc(CC)sc1/N=C/C1C(=O)CCCC1=O	inconclusive: 113%
Cc1nc(SCc2cccc(F)c2)c2oc3ccccc3c2n1	inconclusive: 83.7%
CN1CCN(CCCNC(=S)Nc2ccc(F)c(Cl)c2)CC1	inconclusive: 104%
CN(C)c1ccc(C(=O)N2CCN(c3cc(C(F)(F)F)nc4ccccc34)CC2)cc1	inconclusive: 97.2%
CCOC(=O)C1(Cc2ccccc2)CCN(Cc2cnc(N3CCOCC3)s2)CC1	inactive: 104%
CCc1ccc(NC(=O)C(=O)NCc2ccccn2)cc1	inactive: 88.9%
O=C(c1nc(SCc2ccc([N+](=O)[O-])cc2)n2ccccc12)C(F)(F)F	inconclusive: 101%
COC(=O)c1c(C)oc(C)c1S(=O)(=O)NCc1ccc(Cl)cc1	inconclusive: 86.5%
NNC(=O)c1ccc(-c2ccccc2F)cc1	inconclusive: 80.1%
CCOC(=O)C1=C(c2ccccc2)NC(=S)NC1c1ccc(Cl)cc1 (stereo not given)	inconclusive: 63.2%
O=S(=O)(Nc1ccc(N2CCCCC2)cc1)c1ccccc1F	inconclusive: 82.1%
Nn1c(SCC(=O)Nc2ccc(S(N)(=O)=O)cc2)nnc1C(F)(F)F	inconclusive: 120%

Structure (SMILES)	binding response (% of control)
COc1ccc(C(=O)Nc2c(Cl)cc(Cl)cc2C(=O)N2CCOCC2)cc1	inactive: 91.1%
Cc1ccc(CCNC(=O)C2CC(c3cccc(F)c3)=NO2)cc1 (stereo not given)	inconclusive: 118%
CCOC(=O)c1ccc(Nc2nnc(C)c3ccccc23)cc1	inconclusive: 71.4%
O=C(O)CN1CCCCC1	inactive: 96.8%
CCN(CC)CCCN=C(C)C1=C(O)c2ccccc2C1=O	inconclusive: 95.1%
Cc1nnc(NC(=O)CCSCCC(=O)Nc2nnc(C)s2)s1	inconclusive: 79.6%
N/C(=N\OC(=O)C1CC1)c1ccc([N+](=O)[O-])s1	inconclusive: 105%
C[C@@H]1CC[C@H]2C(=O)N3[C@@H](CC[C@@H](C)[C@@H]3c3ccc(Br)cc3)C(=O)N2[C@H]1c1ccc(Br)cc1	inactive: 105%
COc1ccc(OC)c(C2C=C(c3ccc(C)c(C)c3)Nc3nnnn32)c1 (stereo not given)	inactive: 112%
Cc1cccc(Oc2nc(-c3ccccn3)nc3ccccc23)c1	inconclusive: -1.15%
O=C1CCCc2c1nc(-c1ccc([N+](=O)[O-])cc1)n2O	inconclusive: 117%
CN(C(=O)Nc1cccc(C(F)(F)F)c1)C1CCCCC1	inconclusive: 124%
O=S(=O)(Nc1nc2ccccc2nc1NCC1CCCO1)c1cccc(Cl)c1 (stereo not given)	inconclusive: 99.2%
CN1C(=O)S/C(=C\c2ccc(-n3cncn3)cc2)C1=O	inactive: 90%
COc1cc(/C=C/C(=O)O)cc(S(=O)(=O)Nc2ccc3c(c2)OCO3)c1OC	inconclusive: 93.3%
C=CCNC(=S)NS(=O)(=O)c1cccs1	inactive: 93.9%
COc1ccc(C)cc1S(=O)(=O)N(C)CC(=O)NC1CCCCCC1	inconclusive: 81.7%
COCC(C)OC(=O)c1c(N)n(CCCN2CCOCC2)c2nc3ccccc3nc12 (stereo not given)	inconclusive: 129%
CC(C)(C)c1ccc(-c2noc(-c3ccc4c(c3)CCO4)n2)cc1	inconclusive: 103%
O=C(NCc1ccc2c(c1)OCO2)NC12CC3CC(CC(C3)C1)C2	inactive: 137%
O=C1OC(/C(=C\NCc2ccccc2)[N+](=O)[O-])c2ccccc21 (stereo not given)	inconclusive: 89.6%
C#CCO[C@@H]1C[C@H](n2cnc3c(=O)[nH]c(NC(=O)C(C)C)nc32)O[C@@H]1CO	inconclusive: 79.9%
S=C1NC(c2ccccc2)N2C(=S)NC(c3ccccc3)N12 (stereo not given)	inactive: 105%

Single entries from the list:
For binding response (% of control), `CN1C(=O)S/C(=C\c2ccc(-n3cncn3)cc2)C1=O` has inactive: 90%
For binding response (% of control), `O=C1OC(/C(=C\NCc2ccccc2)[N+](=O)[O-])c2ccccc21` (stereo not given) has inconclusive: 89.6%
For binding response (% of control), `Cc1nnc(NC(=O)CCSCCC(=O)Nc2nnc(C)s2)s1` has inconclusive: 79.6%
For binding response (% of control), `CC(C)(C)c1ccc(-c2noc(-c3ccc4c(c3)CCO4)n2)cc1` has inconclusive: 103%
For binding response (% of control), `CCOC(=O)c1ccc(Nc2nnc(C)c3ccccc23)cc1` has inconclusive: 71.4%

More compounds:

Structure (SMILES)	binding response (% of control)
CCc1cc2c(SCC(=O)NC(=O)c3cccn3C)ncnc2s1	inactive: 103%
O=C(Cc1ccc(Br)cc1)NNC(=O)Nc1ccc(Cl)cc1	inconclusive: 119%
C/C=C/C(=O)N1CC2(CC(c3cccc(NC(=O)COc4ccc(Cl)cc4)c3)=NO2)C[C@@H]1C(N)=O (stereo not given in full)	inconclusive: 134%
COc1ccc(-c2nnc(SCC(=O)c3[nH]c(C)c(C(C)=O)c3C)o2)cc1	inactive: 126%
NS(=O)(=O)c1ccc(CNC(=O)c2ccc(Cl)c([N+](=O)[O-])c2)cc1	inconclusive: 113%
O=C1N/C(=N\N=C\c2ccco2)SC1Cc1ccc(F)cc1 (stereo not given)	inconclusive: 101%
O=C(O)/C=C/C(=O)OC1CC2CCC1C2 (stereo not given)	inconclusive: 111%
CC12CCC(C(=O)NCCCN3CCOCC3)(C(Br)C1=O)C2(C)C (stereo not given)	inconclusive: 92.7%
Cc1nn(-c2ccccc2)c2c1cc1c(=O)n(C)c(=O)nc-1n2-c1ccccc1F	inconclusive: 98.1%
O=C(CNCc1ccccn1)N1CCc2ccccc2C1	inconclusive: 120%
O=C(CN1CCCCC1)NNc1nc(-c2ccccc2)c2cc(Br)ccc2n1	inconclusive: 553%
Cc1nnc2sc(SCC(=O)Nc3ccc(Cl)cc3)nn2c1=O	inactive: 102%
N#C/C(=C/c1ccc(-c2ccccc2[N+](=O)[O-])o1)C(=O)NCCN1CCCCC1	inconclusive: 85.3%
C=CCOC(=O)C1=C[C@@H](c2ccc(Br)cc2)C[C@@H](OCc2ccc(CO)cc2)O1	inactive: 101%
Cc1ccc(S(=O)(=O)CC(=O)c2ccc([N+](=O)[O-])cc2)cc1	inconclusive: 363%
O=C(O)c1cccnc1SCc1cn2cc(Cl)ccc2n1	inconclusive: 30.9%
O=C1/C(=C/c2cccc(Br)c2)SC(=S)N1/N=C/c1cc([N+](=O)[O-])ccc1O	inconclusive: 86.8%
NC1=NC(=O)CC(C(=O)NCCc2ccccc2)S1 (stereo not given)	active: -28.9%
COc1ccc(/C=N/NC(=O)c2ccc(N(C)S(=O)(=O)c3ccccc3)cc2)cc1OC	inactive: 101%
Cc1ccc(S(=O)(=O)NC2(C(F)(F)F)C(=O)Nc3c2c(=O)[nH]c(=O)n3-c2ccccc2)cc1 (stereo not given)	active: 162% [activator]
CC(C)CCNC(=O)CCc1nnc(COc2ccccc2)o1	inactive: 102%
CC(C)CN1C(=O)/C(=C(/C#N)C(=O)NC2CCCCC2)c2ccccc21	inactive: 98.2%
Cc1cc(Cl)nc(-n2nc(C)cc2C)n1	inconclusive: 74.7%

Structure (SMILES)	binding response (% of control)
CCNc1nc(NCC)nc(OCCOC(C)=O)n1	inactive: 96.9%
CCOC(=O)c1ccc[n+](CC(=O)Nc2cc(C(F)(F)F)ccc2Cl)c1	inconclusive: 89.1%
CC(=O)N(c1cccc(C(F)(F)F)c1)c1nc(/C=C/C(=O)O)cs1	inconclusive: 81.6%
CC(C(=O)Nc1ccc2c(c1)OCCO2)N1CCN(C(=O)c2ccco2)CC1 (stereo not given)	inactive: 92.2%
O=c1c2cc(NC(=S)NCc3cccnc3)ccc2nc2n1CCCCC2	inconclusive: 125%
O=C1CSC(c2cccc([N+](=O)[O-])c2)N1C1CC2CCC1C2 (stereo not given)	inconclusive: 81.2%
COc1ccc(/C=C2\N=C(c3ccccc3Cl)NC2=O)cc1	inconclusive: 99%
O=C(COc1ccc([N+](=O)[O-])cc1Cl)N1CCOCC1	inconclusive: 152%
Nc1nc(-c2ccc(C(=O)O)cc2)cs1	inconclusive: 89.7%
CN1CCN(NC(=O)c2cc(-c3ccccn3)nc3ccccc23)CC1	inconclusive: 105%
Nc1nc(Nc2ccccc2F)nc(N2CCOCC2)c1[N+](=O)[O-]	inconclusive: 88.2%
COCC(=O)Nc1cc(Cl)c(OC)cc1OC	inactive: 97%
CC(C)CC(=O)Nc1cccc(-c2nc3ccccc3[nH]2)c1	inconclusive: 105%
CCCCOC(=O)c1sc2nc(N3CCOCC3)c3c(c2c1N)CC(C)(C)OC3	inconclusive: 136%
CCNC(=S)N/N=C/c1cccc(/C=N/NC(=S)NCC)c1	inconclusive: 79.5%
CCOC(=O)Cc1csc(NC(=O)C(NC(=O)C2CCCCC2)C(C)C)n1 (stereo not given)	inactive: 95.8%
CC(C)c1ccc(/C=C/C(=O)Nc2ccc(CN3CCOCC3)cc2)cc1	inconclusive: -473%
CC(Nc1ccc(N2CCOCC2)cc1)C(=O)N1c2ccccc2CC1C (stereo not given)	inconclusive: 95.9%
COc1cc([N+](=O)[O-])cc(/C=N/NC(=O)c2cc(C)nc3ccccc23)c1O	inconclusive: 114%
CCN(CC)CCCNC(=O)CSc1nc(-c2ccc(F)cc2)cc(C(F)(F)F)n1	inactive: 92.1%
O=C(NNC(=O)C1COc2ccccc2O1)c1cccc([N+](=O)[O-])c1 (stereo not given)	inactive: 110%
